Reference: PubChem BioAssay AID2685 (National Center for Advancing Translational Sciences (NCATS), 2010)
The list shows a part of the results. These are further read-outs of the screen, such as a control signal, another cell line or another target. No call is given for them. Most of these compounds were active or inconclusive in the main read-out, so they are no random draw. The note in brackets gives the kind of curve behind each potency; many fits are weak.

Experiment: qHTS Assay for Lipid Storage Modulators in Drosophila S3 Cells;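 on cell number change: cells counted by Cell Tracker Red CMTPX staining in the red channel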
Conditions: BODIPY lipid droplet fluorescence, 18-24 h; for cell number change: measured here: cell count max response, cells fed with added oleic acid
Summary of the method: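 Drosophila S3 cells got compounds at several concentrations plus oleic acid (400 uM solution). Laser-scanning cytometry with 488 nm excitation read lipid droplets at 500-530 nm and cells at 575-640 nm. Percent activity was relative to 20 uM Triacsin C.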

[1] = measured here: lipid fluorescence (Fed channel) AC50, cells fed with added oleic acid
[2] = measured here: cell number channel AC50, cells fed with added oleic acid

Row | Compound | cell number change [%] | AC50 [1] | AC50 [2]
1 | O=c1[nH]c2cc(Cl)cc(Cl)c2[nH]c1=O | 20 | 14.6 µM [rising, single point] | 
2 | Cc1ccccc1-n1c(SCC(=O)Nc2ccccc2Cl)nc2n[nH]c(C)c2c1=N | -36.2 | 16.4 µM [falling, partial curve] | 29.1 µM [falling, single point]
3 | CC1Cc2ccccc2N1C(=O)c1nn(C)cc1Br (stereo unspecified) | 20.6 |  | 
4 | COc1ccc(CC(=O)Nc2cc(S(=O)(=O)N3CCCC3)ccc2Cl)c(OC)c1 | 4.35 | 20.6 µM [rising, single point] | 
5 | CC(C)OCCCN(C)C1CCN(S(=O)(=O)c2ccc(-c3ccc(=O)[nH]n3)s2)CC1 | -15.3 | 5.8 µM [falling, single point] | 
6 | COc1ccc(S(=O)(=O)N2CCCCC2)cc1NC(=O)CCc1nc2ccccc2c(=O)[nH]1 | -7.85 | 0.0651 µM [rising, full curve, poor fit] | 0.184 µM [rising, full curve]
7 | O=C(CO/N=C/c1ccccc1OC(F)F)NCc1ccco1 | 13.1 | 18.4 µM [rising, single point] | 
8 | Cc1ccc(S(N)(=O)=O)cc1NC(=O)C(c1ccccc1)c1ccccc1 | -6.91 | 0.231 µM [rising, full curve, poor fit] | 
9 | CC1CC(C)(C)CC2(C1)NC(=O)N(CC(=O)N1CCN(S(=O)(=O)c3cccs3)CC1)C2=O (stereo unspecified) | -26.3 | 6.51 µM [falling, partial curve, poor fit] | 
10 | CC(Cc1cccs1)NC(=S)Nc1ccc(F)cc1 (stereo unspecified) | 68.3 | 16.4 µM [rising, partial curve] | 29.1 µM [rising, single point]
11 | COCCn1c(SCC#N)nnc1-c1ccccc1 | -3.88 |  | 
12 | Cc1cc(NC(=O)COC(=O)c2cccc(S(=O)(=O)N(C)C3CCCCC3)c2)no1 | -13.7 | 8.2 µM [falling, partial curve, poor fit] | 
13 | CCCN1CCC(=O)N([C@H](CSc2ccc(Br)cc2)c2ccccc2)CC1 | 18.8 |  | 0.731 µM [rising, full curve, poor fit]
14 | CC(C)[C@H](NS(=O)(=O)c1cccc(Cl)c1)C(=O)OCC(=O)NC(=O)CN1CCCC1=O | 14.1 | 1.84 µM [rising, partial curve] | 
15 | CCOc1cccc(C2C(C(=O)c3ccc(C)o3)=C(O)C(=O)N2Cc2ccccc2)c1 (stereo unspecified) | 5.25 |  | 
16 | Cc1cnc(C(=O)OCC(=O)N(C(C)C)C(C)C)cn1 | 17.4 |  | 
17 | COC(=O)C1C(=O)C2=C(CC1C)NC(C)=C(C(=O)OCCOc1ccccc1)C2c1ccc(C)o1 (stereo unspecified) | -20.7 | 29.1 µM [falling, single point] | 
18 | COc1ccc(N(CC(=O)N2CCCCC2)S(=O)(=O)c2c(C)nn(C)c2C)cc1 | -1.96 |  | 0.651 µM [falling, single point]
19 | CCN(CC)c1ccc2cc(S(=O)(=O)c3ccc(Cl)cc3)c(=O)oc2c1 | 3.12 | 6.51 µM [rising, single point] | 

Fetched by structure from above:
Row | Compound | cell number change [%] | AC50 [1] | AC50 [2]
15 | CCOc1cccc(C2C(C(=O)c3ccc(C)o3)=C(O)C(=O)N2Cc2ccccc2)c1 (stereo unspecified) | 5.25 |  | 
9 | CC1CC(C)(C)CC2(C1)NC(=O)N(CC(=O)N1CCN(S(=O)(=O)c3cccs3)CC1)C2=O (stereo unspecified) | -26.3 | 6.51 µM [falling, partial curve, poor fit] | 

The list continues.

Row | Compound | cell number change [%] | AC50 [1] | AC50 [2]
20 | CCOc1ccc(NS(=O)(=O)CC23CCC(CC2=O)C3(C)C)cc1 (stereo unspecified) | 9.68 | 2.06 µM [rising, single point] | 
21 | CCn1c(NC(=O)c2cccs2)nc2ccccc21 | -30.8 |  | 1.64 µM [falling, full curve, poor fit]
22 | O=C(Nc1cccnc1)c1cc2c(s1)-c1ccccc1OC2 | -56 |  | 
23 | O=C(N/N=C/c1coc2ccccc2c1=O)c1cc2ccccc2o1 | 13.5 | 3.66 µM [falling, partial curve] | 
24 | CSc1ncccc1C(=O)NC1CCCc2c1cnn2-c1ccc(C)c(C)c1 (stereo unspecified) | 32.1 | 1.03 µM [falling, full curve] | 1.3 µM [falling, partial curve]
25 | COc1ccc2oc3cc(C)[n+]([O-])c(-c4ccc(C)cc4)c3c2c1 | 65.7 |  | 32.6 µM [rising, single point]
26 | CCCNC(=O)C1CCN(S(=O)(=O)c2cccs2)CC1 |  | 0.58 µM [falling, single point] | 
27 | CCOC(=O)N1CCN(C(=O)CS(=O)Cc2nc(-c3cccc(C)c3)oc2C)CC1 (stereo unspecified) | 16.1 | 10.3 µM [rising, partial curve, poor fit] | 0.00411 µM [rising, full curve, poor fit]
28 | COc1ccc(-n2ncc3c2CC(C)(C)CC3NC(=O)c2oc(C)cc2C)cc1 (stereo unspecified) | -13.4 | 0.517 µM [falling, full curve] | 
29 | O=C(c1ccc(-n2cncn2)c([N+](=O)[O-])c1)N1CCN(S(=O)(=O)c2ccccc2F)CC1 |  |  | 6.51 µM [falling, single point]
30 | CC(OC(=O)c1ccc(Cl)c([N+](=O)[O-])c1)C(=O)N1CCN(Cc2ccccc2)CC1 (stereo unspecified) | 27.3 | 0.517 µM [rising, single point] | 
31 | Cc1ccccc1N1CCN(C(=O)c2ccccc2NC(=O)C2CC=CCC2C(=O)O)CC1 (stereo unspecified) | 20.7 | 6.51 µM [rising, partial curve, poor fit] | 
32 | CCCCCN(C(=O)CCC(=O)OC(C)C(=O)NC1CCCCC1)c1c(N)n(CCCC)c(=O)[nH]c1=O (stereo unspecified) | 9.94 |  | 
33 | Cc1cc(=O)oc2c(CN3CCN(C)CC3)c(O)c(Cl)cc12 | -18 |  | 6.51 µM [falling, partial curve, poor fit]
34 | O=C1NCC(c2ccccc2)C1C(=O)N/N=C\c1ccc(-c2cccc(Cl)c2Cl)o1 (stereo unspecified) | -51.8 | 0.731 µM [rising, full curve] | 29.1 µM [falling, single point]
35 | Cc1nn(C(C)(C)C)c(C)c1/C=N/OC(=O)Nc1ccc(Cl)c(Cl)c1 |  | 1.3 µM [rising, full curve, poor fit] | 
36 | CCCc1cc(=O)oc2cc(C)cc(OCc3nn[nH]n3)c12 | 0.407 | 2.59 µM [rising, single point] | 
37 | Cc1ccc2cc(/C=N/NC(=O)c3ccccc3[N+](=O)[O-])c(Cl)nc2c1 | 2.7 | 0.651 µM [falling, single point] | 
